# The list shows a part of the results.
# Experiments:
# Test in all cases: protein microarray (ProtoArray v5.0), streptavidin-Alexa Fluor 647
# Conditions in all cases: 3'-biotin; 20 mM Tris (pH 7.5), 5 mM MgCl2, 100 mM KCl, 0.1% Tween-20, A/T-rich and random oligonucleotide blockers; temperature not stated; high values mean tight binding
# [1] = system: Sperm protein associated with the nucleus on the X chromosome N4 (human)
# [2] = system: Spermatogenesis-associated protein 7 (human)
# [3] = system: Spermine synthase (human)
# [4] = system: StAR-related lipid transfer protein 4 (human)
# [5] = system: Stathmin (human)
# [6] = system: Sulfotransferase family cytosolic 1B member 1 (human)
# [7] = system: Suprabasin (human)
# [8] = system: Synaptonemal complex protein 2-like (human)
# [9] = system: Syndecan-1 (human)
# [10] = system: Synembryn-A (human)
# [11] = system: Syntaxin-1B (human)
# [12] = system: T-complex protein 11-like protein 2 (human)
# [13] = system: TAF5-like RNA polymerase II p300/CBP-associated factor-associated factor 65 kDa subunit 5L (human)
# [14] = system: TAGAP (human)
# [15] = system: TAK1-like protein (human)
# [16] = system: TBC1 domain family member 13 (human)
# [17] = system: TBC1D21 (human)
# [18] = system: TBC1D7 (human)
# [19] = system: TBC1D9B (human)
# [20] = system: TBCD (human)
sequence,measurement,setting,value
GGGGACAGGGGTATGGGGAGGGG [G4-3 biotinylated (CtG)],binding signal,[1],5.79 z-score
same,binding signal,[2],-0.347 z-score
same,binding signal,[3],-0.327 z-score
same,binding signal,[4],-0.319 z-score
same,binding signal,[5],-0.34 z-score
same,binding signal,[6],-0.324 z-score
same,binding signal,[7],-0.339 z-score
same,binding signal,[8],-0.309 z-score
same,binding signal,[9],-0.306 z-score
same,binding signal,[10],-0.33 z-score
same,binding signal,[11],-0.318 z-score
same,binding signal,[12],-0.336 z-score
same,binding signal,[13],-0.318 z-score
same,binding signal,[14],-0.31 z-score
same,binding signal,[15],-0.327 z-score
same,binding signal,[16],-0.343 z-score
same,binding signal,[17],-0.331 z-score
same,binding signal,[18],-0.333 z-score
same,binding signal,[19],-0.334 z-score
same,binding signal,[20],-0.327 z-score

# Reformatted bar-delimited: part of the list above
sequence | measurement | setting | value
GGGGACAGGGGTATGGGGAGGGG [G4-3 biotinylated (CtG)] | binding signal | [1] | 5.79 z-score
same | binding signal | [2] | -0.347 z-score
